Taken from: PubChem BioAssay AID1224828 (NIAID, 2016)

- Purpose: 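Find genes required for NF-kappaB p65 moving into the nucleus after LPS in mouse macrophages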 (primary screen)
- System: mouse RAW264.7 G9 macrophage reporter cells (GFP-p65, Tnf promoter-mCherry)
- Reagents: siRNA pool against mouse genes, 100 nM
- Timing: 2 days siRNA transfection, then 40 min LPS before fixation
- Challenge: LPS (Salmonella minnesota R595) at 10 ng/ml
- Measurement: 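Microscopy ratio of nuclear to perinuclear-ring GFP-p65 signal, scaled to the plate median; gene score is the average of two replicate robust z-scores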
- Direction: p65 translocation robust z-score: higher = more nuclear NF-kappaB p65 after LPS than the plate median; nuclear/cytoplasmic p65 ratio: higher = more nuclear NF-kappaB p65
- Hit rule: 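Called active when z exceeds 3.3 or falls under -1.56 (median of Tlr4 controls), giving activity score of at least 50; no calls for control wells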
- Meaning of the calls: active = hit (p65 shift raised or lowered); inactive = no clear change
In all, the deposit lists about 17,000 reagents; this is a part drawn at random. Over the whole deposit, 762 (4.5%) are marked active. 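Active calls include both raised and lowered p65 entry, mostly lowered; wells with fewer than 50 cells lack a z-score.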 Raw values are not corrected between plates. Entries without a mark were called inactive.

gene symbol,p65 translocation robust z-score,"nuclear/cytoplasmic p65 ratio, rep 1","nuclear/cytoplasmic p65 ratio, rep 2",low cell count flag
"Mybpc3 (myosin binding protein C, cardiac)",-0.54,1.37,1.27,enough cells to score
"Alad (aminolevulinate, delta-, dehydratase)",0.61,1.7,1.72,enough cells to score
Ulk1 (unc-51 like kinase 1),1.23,1.74,1.54,enough cells to score
Hoxa11 (homeobox A11),0.12,1.47,1.37,enough cells to score
"Tubb4a (tubulin, beta 4A class IVA)",-0.53,1.48,1.39,enough cells to score
Zfp119a (zinc finger protein 119a),,1.21,1.3,fewer than 50 cells per well; well left out of scoring
Ranbp9 (RAN binding protein 9),1.23,1.64,1.74,enough cells to score
Wdhd1 (WD repeat and HMG-box DNA binding protein 1),-0.28,1.5,1.54,enough cells to score
Egfl7 (EGF-like domain 7),-2.02 (active),1.17,1.13,enough cells to score
Ticam2 (TIR domain containing adaptor molecule 2),0.05,1.37,1.2,enough cells to score
Magea1 (MAGE family member A1),-2.86 (active),1.37,1.13,enough cells to score
Pnpla6 (patatin-like phospholipase domain containing 6),1.72,1.93,1.82,enough cells to score
"Rbp7 (retinol binding protein 7, cellular)",0.81,1.56,1.28,enough cells to score
Btnl9 (butyrophilin-like 9),1.24,1.69,1.79,enough cells to score
Rpf2 (ribosome production factor 2 homolog),-1.93 (active),1.18,1.25,enough cells to score
Ash1l (ASH1 like histone lysine methyltransferase),-0.39,1.6,1.52,enough cells to score
Acin1 (apoptotic chromatin condensation inducer 1),0.33,1.68,1.66,enough cells to score
"Iars2 (isoleucine-tRNA synthetase 2, mitochondrial)",,1.38,1.36,fewer than 50 cells per well; well left out of scoring
Spa17 (sperm autoantigenic protein 17),0.21,1.64,1.46,enough cells to score
Pbx3 (pre B cell leukemia homeobox 3),-0.88,1.28,1.34,enough cells to score
Pak1 (p21 (RAC1) activated kinase 1),1.58,2.1,1.57,enough cells to score
Tafa3 (TAFA chemokine like family member 3),-1.51,1.17,1.02,enough cells to score
"Zbed4 (zinc finger, BED type containing 4)",0.95,1.88,1.67,enough cells to score
Oxct2a (3-oxoacid CoA transferase 2A),,0.999,1.03,fewer than 50 cells per well; well left out of scoring
Pltp (phospholipid transfer protein),,1.3,1.38,fewer than 50 cells per well; well left out of scoring
Sct (secretin),-0.49,1.32,1.19,enough cells to score
Olfr900 (olfactory receptor 900),-0.32,1.36,1.26,enough cells to score
Amotl2 (angiomotin-like 2),-0.74,1.46,1.61,enough cells to score
Cers2 (ceramide synthase 2),1.63,1.74,1.68,enough cells to score
"Tnfsf15 (tumor necrosis factor (ligand) superfamily, member 15)",0.22,1.58,1.52,enough cells to score
"Bpifa1 (BPI fold containing family A, member 1)",0.36,1.24,1.26,enough cells to score
BC048671 (cDNA sequence BC048671),2.08,1.78,1.74,enough cells to score
"Gnaz (guanine nucleotide binding protein, alpha z subunit)",-0.09,1.49,1.58,enough cells to score
Riiad1,,1.58,1.61,fewer than 50 cells per well; well left out of scoring
Rps17 (ribosomal protein S17),,1.77,1.18,fewer than 50 cells per well; well left out of scoring
Mterf3 (mitochondrial transcription termination factor 3),0.2,1.46,1.46,enough cells to score
Rpl39l (ribosomal protein L39-like),-0.27,1.25,1.25,enough cells to score
Ly6g5c (lymphocyte antigen 6 family member G5C),-1.12,1.63,1.31,enough cells to score
Fgl1 (fibrinogen-like protein 1),1.01,1.69,1.65,enough cells to score
Mt3 (metallothionein 3),-0.25,1.43,1.29,enough cells to score
Surf1 (surfeit gene 1),-0.44,1.51,1.46,enough cells to score
"Fcgr2b (Fc receptor, IgG, low affinity IIb)",-0.96,1.33,1.25,enough cells to score
Fbxw26 (F-box and WD-40 domain protein 26),1.52,2.06,1.68,enough cells to score
Nkx2-1 (NK2 homeobox 1),0.05,1.53,1.52,enough cells to score
Dnajb13 (DnaJ heat shock protein family (Hsp40) member B13),0.3,1.42,1.47,enough cells to score
"Ppp1r35 (protein phosphatase 1, regulatory subunit 35)",,1.12,0.78,fewer than 50 cells per well; well left out of scoring
Rplp0 (ribosomal protein lateral stalk subunit P0),-0.78,1.4,1.47,enough cells to score
"Ppp2r5a (protein phosphatase 2, regulatory subunit B', alpha)",-1.24,1.35,1.22,enough cells to score
C230066G23Rik (RIKEN cDNA C230066G23 gene),,1.33,1.35,fewer than 50 cells per well; well left out of scoring
Zscan12 (zinc finger and SCAN domain containing 12),,1.27,1.1,fewer than 50 cells per well; well left out of scoring
Zfp598 (zinc finger protein 598),0,1.34,1.31,enough cells to score
Kcnj16,0.53,1.58,1.51,enough cells to score
Cntrl (centriolin),0.32,1.47,1.48,enough cells to score
Pld2 (phospholipase D2),0.36,1.39,1.26,enough cells to score
Zfp526 (zinc finger protein 526),0.62,1.63,1.32,enough cells to score
Pbx4 (pre B cell leukemia homeobox 4),,1.4,1.19,fewer than 50 cells per well; well left out of scoring
Or6b3 (olfactory receptor family 6 subfamily B member 3),-0.73,1.47,1.35,enough cells to score
Tmem54 (transmembrane protein 54),,1.57,1.35,fewer than 50 cells per well; well left out of scoring
Slc16a12,-1.28,1.32,1.43,enough cells to score
Ctnnbip1 (catenin beta interacting protein 1),1.28,1.49,1.54,enough cells to score
Nmt2 (N-myristoyltransferase 2),1.66,1.96,1.78,enough cells to score
"Atp1b3 (ATPase, Na+/K+ transporting, beta 3 polypeptide)",-1.8 (active),1.27,1.33,enough cells to score
"Smpdl3b (sphingomyelin phosphodiesterase, acid-like 3B)",,1.2,1.14,fewer than 50 cells per well; well left out of scoring
Gm9758 (predicted gene 9758),0.15,1.87,1.45,enough cells to score
Gli3 (GLI-Kruppel family member GLI3),-2.05 (active),1.14,1.13,enough cells to score
Ppig (peptidyl-prolyl isomerase G (cyclophilin G)),0.92,1.83,1.68,enough cells to score
Cibar1 (CBY1 interacting BAR domain containing 1),1.7,1.64,1.8,enough cells to score
Mib1 (MIB E3 ubiquitin protein ligase 1),2.28,1.72,1.65,enough cells to score
Akap8l (A kinase anchor protein 8-like),-0.51,1.48,1.6,enough cells to score
Gars1 (glycyl-tRNA synthetase 1),-0.39,1.27,1.43,enough cells to score
Mef2d (myocyte enhancer factor 2D),-0.22,1.28,1.32,enough cells to score
Dusp9 (dual specificity phosphatase 9),-0.72,1.44,1.23,enough cells to score
Rnf139 (ring finger protein 139),-0.47,1.48,1.61,enough cells to score
Mageb1 (MAGE family member B1),3.48 (active),2.31,2.01,enough cells to score
Bag4 (BCL2-associated athanogene 4),-0.49,1.53,1.55,enough cells to score

Reagents listed above with an active call (6):
gene symbol,p65 translocation robust z-score,"nuclear/cytoplasmic p65 ratio, rep 1","nuclear/cytoplasmic p65 ratio, rep 2",low cell count flag
Egfl7 (EGF-like domain 7),-2.02 (active),1.17,1.13,enough cells to score
Magea1 (MAGE family member A1),-2.86 (active),1.37,1.13,enough cells to score
Rpf2 (ribosome production factor 2 homolog),-1.93 (active),1.18,1.25,enough cells to score
"Atp1b3 (ATPase, Na+/K+ transporting, beta 3 polypeptide)",-1.8 (active),1.27,1.33,enough cells to score
Gli3 (GLI-Kruppel family member GLI3),-2.05 (active),1.14,1.13,enough cells to score
Mageb1 (MAGE family member B1),3.48 (active),2.31,2.01,enough cells to score
